{
  "source": "PubChem BioAssay AID330",
  "about": "(DTP/NCI, 2004)",
  "system": "P388 leukemia ip, CD2F1 mice, survival T/C",
  "test": "NCI In Vivo Anticancer Drug Screen. Data for tumor model P388 Leukemia (intraperitoneal) in CD2F1 (CDF1) mice",
  "conditions": "T/C endpoint: median survival time, higher T/C = longer survival",
  "key": {"[1]": {"conditions": "dose: 12.5 mg/kg/injection, schedule: Q01DX009 (ip), vehicle: Klucel (hydroxypropylcellulose) (HPC)"}, "[2]": {"conditions": "dose: 200.0 mg/kg/injection, schedule: Q01DX009 (ip), vehicle: saline"}, "[3]": {"conditions": "dose: 25.0 mg/kg/injection, schedule: Q01DX009 (ip), vehicle: Klucel (hydroxypropylcellulose) (HPC)"}, "[4]": {"conditions": "dose: 50.0 mg/kg/injection, schedule: Q01DX009 (ip), vehicle: Klucel (hydroxypropylcellulose) (HPC)"}, "[5]": {"conditions": "dose: 100.0 mg/kg/injection, schedule: Q01DX009 (ip), vehicle: Klucel (hydroxypropylcellulose) (HPC)"}},
  "note": "The list shows only some results of the screen, not a fair sample: it gathers some chemical classes. Not every dose and run of a compound is shown. T/C is the treated group as % of the vehicle group. Some doses have a count of surviving animals in place of a T/C: the source holds a T/C of zero for them, seemingly a mark for toxic or unscored doses. Some survivor counts are full or nearly so, which does not show that the dose was tolerated: survival well below the control is almost never listed, so the zero probably covers shortened survival too. Survivors were counted at the toxicity check, usually on the fifth day, unless a day is given; later deaths do not show. Schedules are NCI's codes, taken here to give the interval after Q, in days (D) or hours (H), and the number of doses after X. For survival time, this PubChem deposit counts one and a half times the control or more as active, and values a quarter to a half above the control carry no call in these data; other NCI protocols may use other cut-offs. Some doses were run more than once; the values are given in rising order. Some entries show no survivor count and are marked so; the dose need not have been tolerated. Some T/C values are followed by the survivors on the day toxicity was checked, most often the fifth; where neither a count nor a note follows, no animal had died by that day.",
  "data": [
    {"compound": "O=C1C=C(N(CCCl)CCCl)C(=O)c2ccccc21", "values": [
      {"measurement": "T/C", "setting": "dose: 1.58 mg/kg/injection, schedule: Q01DX009 (ip), vehicle: Klucel (hydroxypropylcellulose) (HPC)", "result": "111 % of control"},
      {"measurement": "T/C", "setting": "dose: 3.12 mg/kg/injection, schedule: Q01DX009 (ip), vehicle: Klucel (hydroxypropylcellulose) (HPC)", "result": "110 % of control [5 of 6 alive]"},
      {"measurement": "T/C", "setting": "dose: 6.25 mg/kg/injection, schedule: Q01DX009 (ip), vehicle: Klucel (hydroxypropylcellulose) (HPC)", "result": "110 % of control"},
      {"measurement": "T/C", "setting": "[1]", "result": "113 % of control"},
      {"measurement": "survivor count", "setting": "[1]", "result": "6 of 6"},
      {"measurement": "T/C", "setting": "dose: 25.0 mg/kg/injection, schedule: Q01DX009 (ip), vehicle: Klucel (hydroxypropylcellulose) (HPC), evaluated on day 30", "result": "96 % of control"},
      {"measurement": "T/C", "setting": "dose: 25.0 mg/kg/injection, schedule: Q01DX009 (ip), vehicle: Klucel (hydroxypropylcellulose) (HPC), evaluation day not shown", "result": "95 % of control [survivor count not shown]"},
      {"measurement": "T/C", "setting": "dose: 50.0 mg/kg/injection, schedule: Q01DX009 (ip), vehicle: Klucel (hydroxypropylcellulose) (HPC), evaluated on day 30", "result": "94 % of control"},
      {"measurement": "T/C", "setting": "dose: 50.0 mg/kg/injection, schedule: Q01DX009 (ip), vehicle: Klucel (hydroxypropylcellulose) (HPC), evaluation day not shown", "result": "106 [survivor count not shown] and 132 % of control [survivor count not shown]"},
      {"measurement": "T/C", "setting": "dose: 100.0 mg/kg/injection, schedule: Q01DX009 (ip), vehicle: Klucel (hydroxypropylcellulose) (HPC), evaluated on day 30", "result": "97 % of control"},
      {"measurement": "T/C", "setting": "dose: 100.0 mg/kg/injection, schedule: Q01DX009 (ip), vehicle: Klucel (hydroxypropylcellulose) (HPC), evaluation day not shown", "result": "112 [survivor count not shown] and 121 % of control [survivor count not shown]"},
      {"measurement": "T/C", "setting": "dose: 200.0 mg/kg/injection, schedule: Q01DX009 (ip), vehicle: Klucel (hydroxypropylcellulose) (HPC), evaluated on day 30", "result": "96 % of control"},
      {"measurement": "T/C", "setting": "dose: 200.0 mg/kg/injection, schedule: Q01DX009 (ip), vehicle: Klucel (hydroxypropylcellulose) (HPC), evaluation day not shown", "result": "107 [survivor count not shown] and 151 % of control [survivor count not shown]"},
      {"measurement": "T/C", "setting": "dose: 400.0 mg/kg/injection, schedule: Q01DX009 (ip), vehicle: Klucel (hydroxypropylcellulose) (HPC), evaluated on day 30", "result": "94 % of control"},
      {"measurement": "T/C", "setting": "dose: 400.0 mg/kg/injection, schedule: Q01DX009 (ip), vehicle: Klucel (hydroxypropylcellulose) (HPC), evaluation day not shown", "result": "100 % of control [survivor count not shown]"}
    ]},
    {"compound": "CC(Cl)CNCC(C)Cl", "note": "(configuration not stated)", "values": [
      {"measurement": "T/C", "setting": "dose: 6.25 mg/kg/injection, schedule: Q01DX009 (ip), vehicle: saline", "result": "100 % of control [survivor count not shown]"},
      {"measurement": "T/C", "setting": "dose: 25.0 mg/kg/injection, schedule: Q01DX009 (ip), vehicle: saline", "result": "118 % of control [survivor count not shown]"},
      {"measurement": "T/C", "setting": "dose: 50.0 mg/kg/injection, schedule: Q01DX009 (ip), vehicle: saline", "result": "145 % of control [survivor count not shown]"}
    ]},
    {"compound": "O=C(SCCCl)SC(Cl)C(Cl)Cl", "note": "(configuration not stated)", "values": [
      {"measurement": "T/C", "setting": "dose: 100.0 mg/kg/injection, schedule: Q01DX009 (ip), vehicle: saline", "result": "96 % of control"},
      {"measurement": "T/C", "setting": "[2]", "result": "99 % of control"}
    ]},
    {"compound": "O=CC(O)C(O)C(O)C(O)CN(CCCl)CCCl", "note": "(configuration not stated)", "values": [
      {"measurement": "T/C", "setting": "dose: 0.62 mg/kg/injection, schedule: Q01DX005 (ip), vehicle: water", "result": "129 % of control"},
      {"measurement": "T/C", "setting": "dose: 1.25 mg/kg/injection, schedule: Q01DX005 (ip), vehicle: water", "result": "132 and 147 % of control"},
      {"measurement": "T/C", "setting": "dose: 2.5 mg/kg/injection, schedule: Q01DX005 (ip), vehicle: water", "result": "141 and 163 % of control"},
      {"measurement": "T/C", "setting": "dose: 5.0 mg/kg/injection, schedule: Q01DX005 (ip), vehicle: water", "result": "163 and 177 % of control"},
      {"measurement": "survivor count", "setting": "dose: 10.0 mg/kg/injection, schedule: Q01DX005 (ip), vehicle: water", "result": "5 of 5"},
      {"measurement": "survivor count", "setting": "dose: 20.0 mg/kg/injection, schedule: Q01DX005 (ip), vehicle: water", "result": "5 of 5"},
      {"measurement": "survivor count", "setting": "dose: 40.0 mg/kg/injection, schedule: Q01DX005 (ip), vehicle: water", "result": "3 of 5"}
    ]},
    {"compound": "NC1CCCCC1.O=P(O)(NC1CCCCC1)N(CCCl)CCCl", "values": [
      {"measurement": "T/C", "setting": "dose: 50.0 mg/kg/injection, schedule: Q01DX009 (ip), vehicle: saline with Tween-80", "result": "115 % of control [survivor count not shown]"},
      {"measurement": "T/C", "setting": "dose: 100.0 mg/kg/injection, schedule: Q01DX009 (ip), vehicle: saline with Tween-80", "result": "125 % of control [survivor count not shown]"},
      {"measurement": "T/C", "setting": "dose: 132.0 mg/kg/injection, schedule: Q01DX009 (ip), vehicle: saline", "result": "95 % of control [survivor count not shown]"},
      {"measurement": "T/C", "setting": "dose: 200.0 mg/kg/injection, schedule: Q01DX009 (ip), vehicle: saline with Tween-80", "result": "150 % of control [survivor count not shown]"},
      {"measurement": "T/C", "setting": "[2]", "result": "100 % of control [survivor count not shown]"}
    ]},
    {"compound": "ClCCN(CCCl)c1ccc(Cl)cc1", "values": [
      {"measurement": "T/C", "setting": "[1]", "result": "104 % of control [survivor count not shown]"},
      {"measurement": "T/C", "setting": "[3]", "result": "104 % of control [survivor count not shown]"},
      {"measurement": "T/C", "setting": "[4]", "result": "108 % of control [survivor count not shown]"},
      {"measurement": "T/C", "setting": "[5]", "result": "112 % of control [survivor count not shown]"},
      {"measurement": "T/C", "setting": "dose: 200.0 mg/kg/injection, schedule: Q01DX009 (ip), vehicle: Klucel (hydroxypropylcellulose) (HPC)", "result": "101 % of control [survivor count not shown]"},
      {"measurement": "T/C", "setting": "dose: 400.0 mg/kg/injection, schedule: Q01DX009 (ip), vehicle: Klucel (hydroxypropylcellulose) (HPC)", "result": "131 % of control [survivor count not shown]"}
    ]},
    {"compound": "Cc1ccc(N(CCI)CCI)cc1", "values": [
      {"measurement": "T/C", "setting": "[1]", "result": "161 % of control [survivor count not shown]"},
      {"measurement": "T/C", "setting": "[3]", "result": "174 % of control [survivor count not shown]"},
      {"measurement": "T/C", "setting": "[4]", "result": "100 [survivor count not shown] and 166 % of control [survivor count not shown]"},
      {"measurement": "T/C", "setting": "[5]", "result": "108 % of control [survivor count not shown]"}
    ]}
  ]
}
